Test results reported in publication PMC11372125.
These are yes or no findings as the source states them, for the method shown. Binding seen in cells or lysates may run through a third protein. Where a sequence is shown, tags or fusion partners need not be part of it.

Protein sequences, listed by entry. Tags and fused reporters are not part of them.
UniProt Q93008: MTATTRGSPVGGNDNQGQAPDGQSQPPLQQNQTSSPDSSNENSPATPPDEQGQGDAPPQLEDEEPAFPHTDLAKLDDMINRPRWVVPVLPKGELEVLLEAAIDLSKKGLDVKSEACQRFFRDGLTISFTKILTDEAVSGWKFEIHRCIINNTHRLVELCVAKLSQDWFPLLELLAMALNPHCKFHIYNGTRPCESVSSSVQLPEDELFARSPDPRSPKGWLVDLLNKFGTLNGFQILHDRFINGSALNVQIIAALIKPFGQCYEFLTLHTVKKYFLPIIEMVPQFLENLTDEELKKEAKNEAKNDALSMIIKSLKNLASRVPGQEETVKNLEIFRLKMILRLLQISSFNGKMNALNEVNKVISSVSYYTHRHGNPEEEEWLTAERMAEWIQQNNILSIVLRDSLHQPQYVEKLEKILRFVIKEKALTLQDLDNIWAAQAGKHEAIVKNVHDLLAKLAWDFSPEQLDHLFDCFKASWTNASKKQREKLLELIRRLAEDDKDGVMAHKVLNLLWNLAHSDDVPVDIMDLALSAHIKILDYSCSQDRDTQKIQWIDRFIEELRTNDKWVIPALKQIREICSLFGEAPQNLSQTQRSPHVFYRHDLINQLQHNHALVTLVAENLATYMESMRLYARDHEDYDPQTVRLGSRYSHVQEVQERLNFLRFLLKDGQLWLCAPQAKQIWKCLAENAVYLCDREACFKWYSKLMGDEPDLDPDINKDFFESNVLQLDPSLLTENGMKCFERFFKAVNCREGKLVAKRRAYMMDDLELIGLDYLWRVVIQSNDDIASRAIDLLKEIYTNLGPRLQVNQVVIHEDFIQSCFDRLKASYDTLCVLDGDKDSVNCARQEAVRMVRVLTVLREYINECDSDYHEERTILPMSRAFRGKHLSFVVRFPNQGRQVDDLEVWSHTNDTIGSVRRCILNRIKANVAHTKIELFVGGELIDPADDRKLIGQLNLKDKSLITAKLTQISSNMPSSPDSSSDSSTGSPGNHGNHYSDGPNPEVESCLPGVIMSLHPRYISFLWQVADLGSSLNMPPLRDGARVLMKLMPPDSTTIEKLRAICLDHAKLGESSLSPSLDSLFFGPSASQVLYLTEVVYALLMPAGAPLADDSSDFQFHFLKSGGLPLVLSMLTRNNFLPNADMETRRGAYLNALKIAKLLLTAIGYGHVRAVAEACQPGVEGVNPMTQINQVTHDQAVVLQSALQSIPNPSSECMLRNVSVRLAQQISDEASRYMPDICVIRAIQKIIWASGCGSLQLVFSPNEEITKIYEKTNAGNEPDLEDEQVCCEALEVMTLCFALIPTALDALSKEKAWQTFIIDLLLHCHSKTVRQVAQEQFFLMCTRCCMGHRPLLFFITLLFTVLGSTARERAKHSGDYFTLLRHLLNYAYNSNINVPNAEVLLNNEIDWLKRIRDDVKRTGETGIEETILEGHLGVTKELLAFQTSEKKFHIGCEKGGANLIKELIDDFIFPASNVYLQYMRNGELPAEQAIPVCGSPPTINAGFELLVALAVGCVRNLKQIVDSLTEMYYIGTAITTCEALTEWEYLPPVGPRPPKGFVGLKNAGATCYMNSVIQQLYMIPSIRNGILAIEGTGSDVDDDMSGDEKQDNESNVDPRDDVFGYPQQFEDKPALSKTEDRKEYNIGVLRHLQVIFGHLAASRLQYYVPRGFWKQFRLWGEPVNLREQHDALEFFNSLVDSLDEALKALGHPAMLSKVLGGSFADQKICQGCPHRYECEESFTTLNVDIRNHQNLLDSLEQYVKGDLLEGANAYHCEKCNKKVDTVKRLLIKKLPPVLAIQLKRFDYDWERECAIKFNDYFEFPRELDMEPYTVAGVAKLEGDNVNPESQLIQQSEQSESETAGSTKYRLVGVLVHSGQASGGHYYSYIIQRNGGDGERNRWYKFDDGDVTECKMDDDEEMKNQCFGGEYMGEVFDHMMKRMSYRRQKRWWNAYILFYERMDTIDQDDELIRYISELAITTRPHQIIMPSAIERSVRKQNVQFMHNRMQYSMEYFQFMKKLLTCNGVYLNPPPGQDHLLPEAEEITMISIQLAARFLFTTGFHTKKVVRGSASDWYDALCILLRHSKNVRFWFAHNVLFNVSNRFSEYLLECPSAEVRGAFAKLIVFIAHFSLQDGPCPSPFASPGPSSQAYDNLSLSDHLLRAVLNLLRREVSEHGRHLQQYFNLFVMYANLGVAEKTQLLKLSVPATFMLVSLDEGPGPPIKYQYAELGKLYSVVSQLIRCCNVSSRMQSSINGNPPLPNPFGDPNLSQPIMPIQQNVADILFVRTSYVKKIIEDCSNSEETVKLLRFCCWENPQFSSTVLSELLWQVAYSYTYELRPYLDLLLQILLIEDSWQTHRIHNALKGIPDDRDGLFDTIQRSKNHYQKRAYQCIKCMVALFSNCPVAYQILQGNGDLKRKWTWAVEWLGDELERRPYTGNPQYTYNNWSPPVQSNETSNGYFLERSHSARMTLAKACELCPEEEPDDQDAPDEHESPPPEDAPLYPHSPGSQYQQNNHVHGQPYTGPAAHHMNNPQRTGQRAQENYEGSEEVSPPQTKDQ

Target: T1, FLAG-IRS4 (UniProt O14654)
T1 sequence: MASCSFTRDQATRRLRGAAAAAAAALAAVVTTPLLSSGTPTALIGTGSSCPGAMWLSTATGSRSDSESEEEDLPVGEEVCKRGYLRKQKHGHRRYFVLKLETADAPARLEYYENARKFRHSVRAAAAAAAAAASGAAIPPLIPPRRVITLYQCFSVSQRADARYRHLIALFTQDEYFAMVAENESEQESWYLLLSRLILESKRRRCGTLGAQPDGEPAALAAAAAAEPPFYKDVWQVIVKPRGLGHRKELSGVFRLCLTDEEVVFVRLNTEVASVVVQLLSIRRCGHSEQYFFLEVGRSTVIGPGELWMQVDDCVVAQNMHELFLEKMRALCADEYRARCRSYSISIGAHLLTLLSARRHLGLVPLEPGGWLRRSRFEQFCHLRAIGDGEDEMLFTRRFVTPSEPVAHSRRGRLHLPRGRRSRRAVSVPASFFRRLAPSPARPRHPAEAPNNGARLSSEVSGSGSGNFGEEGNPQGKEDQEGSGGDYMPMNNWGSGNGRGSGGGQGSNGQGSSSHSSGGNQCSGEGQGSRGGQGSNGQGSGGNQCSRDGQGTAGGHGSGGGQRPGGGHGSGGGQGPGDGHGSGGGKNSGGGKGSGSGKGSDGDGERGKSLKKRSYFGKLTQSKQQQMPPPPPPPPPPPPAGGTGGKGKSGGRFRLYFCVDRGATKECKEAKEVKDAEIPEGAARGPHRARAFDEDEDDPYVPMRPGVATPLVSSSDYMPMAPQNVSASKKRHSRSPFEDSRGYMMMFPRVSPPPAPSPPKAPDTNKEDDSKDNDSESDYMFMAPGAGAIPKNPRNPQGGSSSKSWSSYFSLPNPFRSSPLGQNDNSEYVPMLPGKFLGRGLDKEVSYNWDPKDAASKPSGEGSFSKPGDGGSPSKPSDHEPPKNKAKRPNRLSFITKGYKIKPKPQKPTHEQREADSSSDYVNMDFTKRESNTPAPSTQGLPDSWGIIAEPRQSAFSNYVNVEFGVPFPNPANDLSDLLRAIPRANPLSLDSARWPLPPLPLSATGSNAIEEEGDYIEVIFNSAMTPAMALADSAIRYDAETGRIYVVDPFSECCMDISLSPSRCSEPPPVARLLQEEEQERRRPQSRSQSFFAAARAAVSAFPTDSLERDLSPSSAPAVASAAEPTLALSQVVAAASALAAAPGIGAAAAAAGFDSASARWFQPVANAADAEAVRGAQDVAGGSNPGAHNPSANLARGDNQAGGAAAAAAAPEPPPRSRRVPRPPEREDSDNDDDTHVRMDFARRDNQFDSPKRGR
Test: co-IP; HEK293T cells transfected with tagged plasmids (with or without MYC-PILRB and HA-Ub); lysates immunoprecipitated with anti-FLAG-M2 agarose 4-6 h at 4 °C, western blot

binding: no binding
Substance: V5-USP9X (from UniProt Q93008 1-2554) (enzyme)
